In patent US20190077840A1, “SELECTIVE MCL-1 BINDING PEPTIDES” (MASSACHUSETTS INSTITUTE OF TECHNOLOGY, priority 2015, published 2019):
Part of at least one peptide drawing is inferred or uncertain, most often the ends. Numbered stars: 1 amine (or outer) side, 2 acyl side, 3 side chain; on linkers, the order of the positions; unused ones are H or OH. Bridge positions count the residues as written; N and C are the ends. Square brackets hold non-standard residues; d marks the D form. Peptide text beside a SMILES is read from it. ξ: configuration not given here. ξαMeNle(6-ylidene) = CC(CCCC=[*:3])(N[*:1])C(=O)[*:2]; Cha = N[C@@H](CC1CCCCC1)C(=O)O; Nle = CCCC[C@H](N)C(=O)O; Aib = CC(C)(N)C(=O)O

Amino acid sequences for entries named in this document (tags omitted).
UniProt Q07820, whole entry: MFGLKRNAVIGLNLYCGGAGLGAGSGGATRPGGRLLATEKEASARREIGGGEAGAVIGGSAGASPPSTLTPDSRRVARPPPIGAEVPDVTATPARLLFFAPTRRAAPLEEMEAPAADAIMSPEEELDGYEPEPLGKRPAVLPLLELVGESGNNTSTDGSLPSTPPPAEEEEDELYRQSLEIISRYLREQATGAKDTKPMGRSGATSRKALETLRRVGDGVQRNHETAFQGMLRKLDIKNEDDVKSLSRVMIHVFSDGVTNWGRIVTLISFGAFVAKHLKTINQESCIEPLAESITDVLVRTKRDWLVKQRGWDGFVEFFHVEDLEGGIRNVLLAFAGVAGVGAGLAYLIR

Tests used:
Mcl-1 [1] = target: T1, Mcl-1 (Homo sapiens, UniProt Q07820); test: Competition fluorescence polarization/anisotropy assay with fluoresceinated Bim BH3 peptide for binding to Mcl-1; settings: for selectivity for Mcl-1 over 4 other anti-apoptotic members: versus Bfl-1, Bcl-w, Bcl-xL, Bcl-2, competition experiments
Description: (§1) The standard errors reported are over three experiments.
Position 2e is usually conserved as small (alanine, glycine, serine) in natural BH3 sequences.

Bax/Bak deficient cells = test: Whole-cell BH3 profiling in Bax/Bak deficient cells (BBDL); assay type: cell-based; settings: Bax/Bak independent activity indicates non-specific toxicity
Mcl-1 [2] = target: T1, Mcl-1; test: Biolayer interferometry kinetics of biotinylated stapled peptides binding to Mcl-1; settings: for binding (association) to Mcl-1 compared to M1d: compared to binding of M1d
[3] = Circular dichroism spectroscopy (helicity); assay type: physicochemical; settings: CD, 20 mM tris buffer, pH 7.4
Experimental: as §1
The secondary structure of selected stapled peptides was assessed by circular dichroism (CD) spectroscopy (FIG. 1(c)). […] Therefore, the increases in helicity can be attributed to both helix-inducing substitutions: Aib at 2e and Cha at 3a (Armstrong, K. M.; Fairman, R.; Baldwin, R. L. J. Mol Biol. 1993, 230 (1), 284. and Venkatraman, J.; Shankaramma, S. C.; Balaram, P. Chem. Rev. 2001, 101 (10), 3131).

Row | SMILES | Mcl-1 binding compared with M1d (Mcl-1 [1]) | selectivity for Mcl-1 over 4 other anti-apoptotic members (Mcl-1 [1]) | activity in Bax/Bak deficient cells (Bax/Bak deficient cells) | dissociation from Mcl-1 compared to M1d (Mcl-1 [2]) | binding (association) to Mcl-1 compared to M1d (Mcl-1 [2]) | mean residue ellipticity (MRE) at 222 nm [3] | kdiss (Mcl-1 [2]; biolayer interferometry, Mcl-1)
1 | CCCC[C@H](NC(=O)[C@H](Cc1c[nH]c2ccccc12)NC(=O)[C@@H](N)[C@@H](C)CC)C(=O)NC(C)(C)C(=O)N[C@@H](CCC(N)=O)C(=O)NCC(=O)N[C@@H](CC(C)C)C(=O)N[C@@H](CCCNC(=N)N)C(=O)N[C@@H](CCCNC(=N)N)C(=O)N[C@@H](CC(C)C)C(=O)NCC(=O)N[C@@H](CC(=O)O)C(=O)N[C@@H](CCC(=O)O)C(=O)N[C@H](C(=O)NC1(C)CCCC=CCCCC(C)(C(=O)N[C@@H](CCCNC(=N)N)C(=O)N[C@@H](CCCNC(=N)N)C(N)=O)NC(=O)[C@H](Cc2ccc(O)cc2)NC(=O)[C@H](Cc2ccc(O)cc2)NC(=O)[C@H](C)NC1=O)[C@@H](C)CC (stereo partly shown) [M2d, IWBAibQGLRRLGDEIXAYYXRR] (H-IW[Nle][Aib]QGLRRLGDEI[ξαMeNle(6-ylidene)]AYY[ξαMeNle(6-ylidene)]RR-NH2; staple 15-19) | considerably tighter binders | highly selective | Bax/Bak independent activity | even slower | slower | 15,450 deg cm^2 dmol^−1 | 
2 | CCCC[C@H](NC(=O)[C@H](Cc1c[nH]c2ccccc12)NC(=O)[C@@H](N)[C@@H](C)CC)C(=O)NC(C)(C)C(=O)N[C@@H](CCC(N)=O)C(=O)NCC(=O)N[C@@H](CC1CCCCC1)C(=O)N[C@@H](CCCNC(=N)N)C(=O)N[C@@H](CCCNC(=N)N)C(=O)N[C@@H](CC(C)C)C(=O)NCC(=O)N[C@@H](CC(=O)O)C(=O)N[C@@H](CCC(=O)O)C(=O)N[C@H](C(=O)NC1(C)CCCC=CCCCC(C)(C(=O)N[C@@H](CCCNC(=N)N)C(=O)N[C@@H](CCCNC(=N)N)C(N)=O)NC(=O)[C@H](Cc2ccc(O)cc2)NC(=O)[C@H](Cc2ccc(O)cc2)NC(=O)[C@H](C)NC1=O)[C@@H](C)CC (stereo partly shown) [M3d, IWBAibQGChaRRLGDEIXAYYXRR] (H-IW[Nle][Aib]QG[Cha]RRLGDEI[ξαMeNle(6-ylidene)]AYY[ξαMeNle(6-ylidene)]RR-NH2; staple 15-19) | considerably tighter binders | highly selective | no activity | even slower | slower | 21,000 deg cm^2 dmol^−1 | 1.8×10^−4
